According to US20210246218A1:
No constants are given. Whether binding was seen depends on the method and setting. Some results given as binding are weak or reduced against the parent protein; the word gives no strength.

By UniProt entry, the sequences of proteins in these tests, tags left out. Residues count along the entry.
UniProt Q07011, residues 24-186: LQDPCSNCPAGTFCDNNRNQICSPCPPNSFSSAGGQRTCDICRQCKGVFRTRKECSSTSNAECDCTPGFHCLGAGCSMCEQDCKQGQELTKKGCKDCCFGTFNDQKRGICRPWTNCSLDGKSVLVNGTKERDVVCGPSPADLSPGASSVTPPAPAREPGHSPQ

These binders were tested against CD137 protein (UniProt Q07011) (assay: BLI (Octet Red 96)).

Row | Binder | binding
1 | humanized anti-CD137 antibody clone 3715 (IgG4 S228P/kappa) (antibody, V domains shown) VH: QVQLVQSGAEVVKPGASVKVSCKASGYTFAGFEMHWVRQAPGQGLGWMGAIDPKTGGTDYNQKFKDRVTMTADTSISTAYMELSRLRSDDTAVYYCTRDLGYFDVWGQGTLVTVSS VL: DIQMTQSPSSLSASVGDRVTITCRASQDIRSNLNWYQQKPGGAVKLLIYYTSRLHSGVPSRFSGSGSGTDYTLTISSLQPEDFATYFCQQSEKLPRTFGGGTKVEIRR | binds
2 | humanized anti-CD137 antibody clone 3716 (IgG4 S228P/kappa) (antibody, V domains shown) VH: QVQLVQSGAEVVKPGASVKVSCKASGYTFAGFEMHWVRQAPGQGLGWMGAIDPKTGGTDYNQKFKDRVTMTADTSISTAYMELSRLRSDDTAVYYCTRDLGYFDVWGQGTLVTVSS VL: DIQMTQSPSSLSASVGDRVTITCRASQDIRSNLNWYQQKPGGAVKLLIYYTSRLHSGVPSRFSGSGSGTDYTLTISSLQPEDFATYFCQQSEKLPRTFGGGTKLEIRR | binds

Results, then the binder that gave them:

Row | binding | Binder
3 | binds | humanized anti-CD137 antibody clone 3719 (IgG4 S228P/kappa) (antibody, V domains shown) VH: QVQLVQSGAEVVKPGASVKLSCKASGYTFAGFEMHWIRQAPGQGLGWIGAIDPKTGGTDYNQKFKDRATLTADTSISTAYMELSRLRSDDTAVYYCTRDLGYFDVWGQGTLVTVSS VL: DIQMTQSPSSLSASVGDRVTITCRASQDIRSNLNWYQQKPGGAVKLLIYYTSRLHSGVPSRFSGSGSGTDYTLTISSLQPEDFATYFCQQSEKLPRTFGGGTKLEIRR
4 | binds | humanized anti-CD137 antibody clone 3717 (IgG4 S228P/kappa) (antibody, V domains shown) VH: QVQLVQSGAEVVKPGASVKLSCKASGYTFAGFEMHWIRQAPGQGLGWIGAIDPKTGGTDYNQKFKDRATLTADTSISTAYMELSRLRSDDTAVYYCTRDLGYFDVWGQGTLVTVSS VL: DIQMTQSPSSLSASVGDRVTITCRASQDIRSNLNWYQQKPGKAPKLLIYYTSRLHSGVPSRFSGSGSGTDFTLTISSLQPEDFATYYCQQSEKLPRTFGGGTKVEIRR
5 | binds | humanized anti-CD137 antibody clone 3718 (IgG4 S228P/kappa) (antibody, V domains shown) VH: QVQLVQSGAEVVKPGASVKLSCKASGYTFAGFEMHWIRQAPGQGLGWIGAIDPKTGGTDYNQKFKDRATLTADTSISTAYMELSRLRSDDTAVYYCTRDLGYFDVWGQGTLVTVSS VL: DIQMTQSPSSLSASVGDRVTITCRASQDIRSNLNWYQQKPGGAVKLLIYYTSRLHSGVPSRFSGSGSGTDYTLTISSLQPEDFATYFCQQSEKLPRTFGGGTKVEIRR
